These are yes or no findings as the source states them, for the method shown. In cells and extracts the contact can be indirect. A yes stands for co-enrichment or nearness to the bait. Other partners may have been found. For part of these data: A no says only that the protein was not detected with the bait.
How the values were obtained:
[1] = target: NR2E3-MUTT2A-TurboID (human) (UniProt Q9Y5X4); assay: proximity labelling
[2] = target: G56R-NR2E3-MUTT2A-TurboID (human) (UniProt Q9Y5X4); assay: proximity labelling

Amino acid sequences for entries named in this document (tags omitted). A change or cut given only in a name is not applied to a line headed by its entry.
UniProt Q9Y5X4: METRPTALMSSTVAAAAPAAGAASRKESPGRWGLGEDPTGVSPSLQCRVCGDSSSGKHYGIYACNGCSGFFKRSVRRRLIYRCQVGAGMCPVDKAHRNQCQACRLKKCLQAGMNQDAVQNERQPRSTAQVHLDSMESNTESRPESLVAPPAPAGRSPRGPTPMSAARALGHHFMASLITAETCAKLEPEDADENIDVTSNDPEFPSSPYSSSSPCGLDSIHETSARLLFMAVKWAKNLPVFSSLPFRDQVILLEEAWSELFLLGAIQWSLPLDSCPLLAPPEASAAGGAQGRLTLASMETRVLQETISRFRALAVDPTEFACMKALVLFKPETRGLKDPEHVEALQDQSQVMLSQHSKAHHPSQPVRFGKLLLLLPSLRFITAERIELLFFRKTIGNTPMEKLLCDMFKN
UniProt O15379: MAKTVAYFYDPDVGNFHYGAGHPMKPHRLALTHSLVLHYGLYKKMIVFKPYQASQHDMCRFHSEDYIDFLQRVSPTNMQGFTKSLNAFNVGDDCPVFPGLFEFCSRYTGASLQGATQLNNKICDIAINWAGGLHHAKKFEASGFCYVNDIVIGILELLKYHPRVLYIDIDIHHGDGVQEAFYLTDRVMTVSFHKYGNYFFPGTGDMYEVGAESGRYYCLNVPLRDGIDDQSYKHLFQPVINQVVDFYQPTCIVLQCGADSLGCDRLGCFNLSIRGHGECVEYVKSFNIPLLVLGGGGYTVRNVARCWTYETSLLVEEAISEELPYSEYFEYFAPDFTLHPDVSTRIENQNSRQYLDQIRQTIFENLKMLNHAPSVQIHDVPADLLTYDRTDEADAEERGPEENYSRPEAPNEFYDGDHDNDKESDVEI
UniProt Q86SE9: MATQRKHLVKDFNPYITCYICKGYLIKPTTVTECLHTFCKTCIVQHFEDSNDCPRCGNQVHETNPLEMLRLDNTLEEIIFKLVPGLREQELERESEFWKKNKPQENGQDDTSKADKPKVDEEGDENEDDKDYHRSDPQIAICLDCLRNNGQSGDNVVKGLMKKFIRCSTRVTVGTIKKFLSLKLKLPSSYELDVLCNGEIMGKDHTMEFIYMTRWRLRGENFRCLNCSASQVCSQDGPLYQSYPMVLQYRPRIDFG
UniProt Q6W2J9: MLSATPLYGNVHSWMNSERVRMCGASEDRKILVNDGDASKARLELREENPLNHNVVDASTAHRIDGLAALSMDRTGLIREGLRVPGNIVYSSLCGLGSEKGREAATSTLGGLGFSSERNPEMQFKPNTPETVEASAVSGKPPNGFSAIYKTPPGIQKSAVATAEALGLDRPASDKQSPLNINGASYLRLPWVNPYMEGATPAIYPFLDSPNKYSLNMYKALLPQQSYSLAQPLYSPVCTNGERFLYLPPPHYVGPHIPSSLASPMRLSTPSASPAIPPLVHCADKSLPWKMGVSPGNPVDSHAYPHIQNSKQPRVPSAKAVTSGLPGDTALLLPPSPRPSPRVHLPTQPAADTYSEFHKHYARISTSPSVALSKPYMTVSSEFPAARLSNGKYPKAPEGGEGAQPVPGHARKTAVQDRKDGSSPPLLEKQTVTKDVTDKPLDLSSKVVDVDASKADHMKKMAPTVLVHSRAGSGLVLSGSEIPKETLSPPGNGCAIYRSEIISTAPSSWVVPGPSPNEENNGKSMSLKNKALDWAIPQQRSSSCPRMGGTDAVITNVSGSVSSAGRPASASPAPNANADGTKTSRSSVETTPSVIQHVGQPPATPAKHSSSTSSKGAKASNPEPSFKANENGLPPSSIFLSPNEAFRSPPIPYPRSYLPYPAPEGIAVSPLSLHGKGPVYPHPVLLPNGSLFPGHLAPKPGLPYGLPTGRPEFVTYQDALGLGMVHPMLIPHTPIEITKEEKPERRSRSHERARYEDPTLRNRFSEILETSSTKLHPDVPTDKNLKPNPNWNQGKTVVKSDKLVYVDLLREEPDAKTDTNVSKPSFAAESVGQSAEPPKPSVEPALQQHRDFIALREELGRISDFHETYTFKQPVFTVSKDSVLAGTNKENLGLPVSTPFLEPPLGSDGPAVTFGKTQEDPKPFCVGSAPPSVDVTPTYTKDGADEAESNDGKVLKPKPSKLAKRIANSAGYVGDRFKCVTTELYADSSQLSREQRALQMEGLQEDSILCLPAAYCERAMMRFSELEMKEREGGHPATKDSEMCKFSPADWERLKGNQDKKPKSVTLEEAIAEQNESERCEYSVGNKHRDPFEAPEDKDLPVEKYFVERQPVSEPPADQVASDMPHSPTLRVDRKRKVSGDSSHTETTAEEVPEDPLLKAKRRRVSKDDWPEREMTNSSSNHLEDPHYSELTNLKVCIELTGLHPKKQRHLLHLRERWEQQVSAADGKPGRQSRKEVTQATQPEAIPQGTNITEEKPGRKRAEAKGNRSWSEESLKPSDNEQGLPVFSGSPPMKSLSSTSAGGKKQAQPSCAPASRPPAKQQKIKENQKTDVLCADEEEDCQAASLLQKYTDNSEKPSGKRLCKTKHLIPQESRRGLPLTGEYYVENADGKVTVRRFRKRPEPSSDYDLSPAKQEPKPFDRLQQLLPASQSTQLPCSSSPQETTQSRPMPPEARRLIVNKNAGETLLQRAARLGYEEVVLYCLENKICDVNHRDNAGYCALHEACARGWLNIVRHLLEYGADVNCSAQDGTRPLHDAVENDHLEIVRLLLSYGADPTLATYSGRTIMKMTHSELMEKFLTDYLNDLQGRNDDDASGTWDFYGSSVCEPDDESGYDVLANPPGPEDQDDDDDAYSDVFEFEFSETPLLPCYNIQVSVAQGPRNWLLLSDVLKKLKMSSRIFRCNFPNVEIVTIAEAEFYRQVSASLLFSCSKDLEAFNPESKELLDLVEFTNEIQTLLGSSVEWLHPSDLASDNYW
UniProt Q70CQ2: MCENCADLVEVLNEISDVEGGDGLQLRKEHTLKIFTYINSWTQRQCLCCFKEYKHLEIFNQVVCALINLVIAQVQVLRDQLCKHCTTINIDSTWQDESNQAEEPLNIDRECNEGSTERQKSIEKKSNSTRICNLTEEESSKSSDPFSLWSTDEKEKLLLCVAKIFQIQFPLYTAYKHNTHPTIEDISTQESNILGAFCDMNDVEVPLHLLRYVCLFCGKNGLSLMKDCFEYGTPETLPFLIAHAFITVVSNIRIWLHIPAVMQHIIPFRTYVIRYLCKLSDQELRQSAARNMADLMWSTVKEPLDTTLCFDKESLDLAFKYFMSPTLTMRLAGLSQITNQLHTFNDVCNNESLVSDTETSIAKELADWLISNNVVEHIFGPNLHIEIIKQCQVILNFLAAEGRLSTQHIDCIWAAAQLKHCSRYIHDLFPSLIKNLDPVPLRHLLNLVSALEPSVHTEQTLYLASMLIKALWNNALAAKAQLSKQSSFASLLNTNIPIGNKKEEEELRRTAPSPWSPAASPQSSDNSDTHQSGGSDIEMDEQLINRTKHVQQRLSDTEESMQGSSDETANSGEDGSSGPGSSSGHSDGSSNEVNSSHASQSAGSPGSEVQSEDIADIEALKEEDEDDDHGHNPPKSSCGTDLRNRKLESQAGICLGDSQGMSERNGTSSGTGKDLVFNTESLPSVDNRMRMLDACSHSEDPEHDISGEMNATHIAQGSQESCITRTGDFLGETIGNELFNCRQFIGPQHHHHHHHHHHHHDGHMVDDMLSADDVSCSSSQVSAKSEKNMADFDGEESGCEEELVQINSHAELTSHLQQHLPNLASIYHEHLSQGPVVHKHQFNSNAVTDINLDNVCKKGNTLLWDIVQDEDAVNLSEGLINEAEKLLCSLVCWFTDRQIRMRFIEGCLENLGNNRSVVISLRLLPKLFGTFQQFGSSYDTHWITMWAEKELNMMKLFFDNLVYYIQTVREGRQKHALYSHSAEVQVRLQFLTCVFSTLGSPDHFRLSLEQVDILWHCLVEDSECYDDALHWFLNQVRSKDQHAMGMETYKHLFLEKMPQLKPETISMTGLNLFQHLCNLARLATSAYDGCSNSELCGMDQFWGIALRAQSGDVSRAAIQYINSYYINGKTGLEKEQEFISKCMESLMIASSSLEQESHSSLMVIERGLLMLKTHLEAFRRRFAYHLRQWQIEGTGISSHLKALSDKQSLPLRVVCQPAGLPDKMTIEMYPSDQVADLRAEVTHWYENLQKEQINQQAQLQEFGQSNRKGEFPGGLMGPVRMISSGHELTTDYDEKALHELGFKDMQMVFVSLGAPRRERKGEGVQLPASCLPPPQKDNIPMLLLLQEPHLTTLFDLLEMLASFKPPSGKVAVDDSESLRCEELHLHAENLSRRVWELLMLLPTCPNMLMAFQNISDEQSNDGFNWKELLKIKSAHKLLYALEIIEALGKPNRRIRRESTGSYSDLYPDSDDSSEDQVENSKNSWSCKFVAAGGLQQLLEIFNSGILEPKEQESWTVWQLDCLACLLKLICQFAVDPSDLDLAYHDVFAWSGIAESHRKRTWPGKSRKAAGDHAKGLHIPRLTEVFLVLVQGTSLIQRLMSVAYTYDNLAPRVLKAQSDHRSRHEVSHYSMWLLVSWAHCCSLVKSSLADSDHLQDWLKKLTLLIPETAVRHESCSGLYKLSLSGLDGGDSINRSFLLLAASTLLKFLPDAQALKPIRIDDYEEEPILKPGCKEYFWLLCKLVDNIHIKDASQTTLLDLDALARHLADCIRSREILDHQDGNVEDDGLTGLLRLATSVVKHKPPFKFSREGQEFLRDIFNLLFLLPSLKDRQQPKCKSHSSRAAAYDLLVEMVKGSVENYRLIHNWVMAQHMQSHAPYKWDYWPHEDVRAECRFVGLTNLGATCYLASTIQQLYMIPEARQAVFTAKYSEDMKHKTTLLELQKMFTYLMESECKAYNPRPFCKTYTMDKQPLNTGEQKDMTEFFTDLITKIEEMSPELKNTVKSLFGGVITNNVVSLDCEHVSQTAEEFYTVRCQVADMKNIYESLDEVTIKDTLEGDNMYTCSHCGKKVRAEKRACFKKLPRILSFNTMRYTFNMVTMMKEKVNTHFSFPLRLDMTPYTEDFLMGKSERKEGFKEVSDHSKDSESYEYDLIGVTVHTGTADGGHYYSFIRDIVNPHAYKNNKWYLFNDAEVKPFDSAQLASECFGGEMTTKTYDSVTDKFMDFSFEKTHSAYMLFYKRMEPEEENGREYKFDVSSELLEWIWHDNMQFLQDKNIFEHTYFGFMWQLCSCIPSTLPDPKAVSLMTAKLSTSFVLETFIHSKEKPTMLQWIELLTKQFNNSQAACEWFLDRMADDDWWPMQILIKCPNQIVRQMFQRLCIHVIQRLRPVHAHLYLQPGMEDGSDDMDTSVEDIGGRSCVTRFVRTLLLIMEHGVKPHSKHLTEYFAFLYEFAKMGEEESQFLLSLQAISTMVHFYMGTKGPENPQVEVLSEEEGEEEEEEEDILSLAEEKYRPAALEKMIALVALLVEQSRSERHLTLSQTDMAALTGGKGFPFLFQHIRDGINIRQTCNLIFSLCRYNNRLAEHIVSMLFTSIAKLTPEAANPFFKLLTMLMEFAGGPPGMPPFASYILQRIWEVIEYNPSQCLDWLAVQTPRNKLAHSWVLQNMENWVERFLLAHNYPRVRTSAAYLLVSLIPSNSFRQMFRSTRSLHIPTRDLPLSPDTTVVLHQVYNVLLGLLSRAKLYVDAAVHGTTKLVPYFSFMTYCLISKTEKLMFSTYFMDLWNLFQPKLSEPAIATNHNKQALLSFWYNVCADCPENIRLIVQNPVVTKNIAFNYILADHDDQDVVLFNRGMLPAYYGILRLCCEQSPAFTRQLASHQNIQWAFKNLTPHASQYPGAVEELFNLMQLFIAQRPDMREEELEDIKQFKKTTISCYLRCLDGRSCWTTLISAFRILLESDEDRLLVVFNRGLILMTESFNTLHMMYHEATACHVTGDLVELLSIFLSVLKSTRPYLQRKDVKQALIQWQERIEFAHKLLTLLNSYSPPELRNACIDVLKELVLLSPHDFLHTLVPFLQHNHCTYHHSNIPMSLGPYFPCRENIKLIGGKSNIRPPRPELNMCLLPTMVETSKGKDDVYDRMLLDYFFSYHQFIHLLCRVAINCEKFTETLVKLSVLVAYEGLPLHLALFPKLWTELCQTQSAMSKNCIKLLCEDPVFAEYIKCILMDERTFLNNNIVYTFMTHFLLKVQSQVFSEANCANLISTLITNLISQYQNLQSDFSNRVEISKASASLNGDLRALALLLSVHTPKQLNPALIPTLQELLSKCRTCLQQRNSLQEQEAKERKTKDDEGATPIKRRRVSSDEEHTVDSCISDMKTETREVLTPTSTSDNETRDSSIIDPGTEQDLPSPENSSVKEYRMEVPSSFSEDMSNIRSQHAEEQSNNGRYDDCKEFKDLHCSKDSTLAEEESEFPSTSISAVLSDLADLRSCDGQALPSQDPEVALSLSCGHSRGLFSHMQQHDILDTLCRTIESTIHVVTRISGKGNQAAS

Row | Substance | binding [1] | binding [2]
1 | CPSF4 (from UniProt O95639 1-269) | binds | 
2 | PCGF1 (from UniProt Q9BSM1 1-259) | binds | 
3 | class I histone deacetylase HDAC3 (from UniProt O15379 1-428) | binds | binds
4 | CPSF6 (from UniProt Q16630 1-551) | binds | 
5 | nuclear receptor corepressor 1 (from UniProt O75376 1-2440) | binds | binds
6 | PCGF5 (from UniProt Q86SE9 1-256) | binds | 
7 | Bcl-6 co-repressor (BCOR) (from UniProt Q6W2J9 1-1755) | no binding | binds
8 | RING1 (from UniProt Q06587 1-406) | binds | 
9 | USP34 (from UniProt Q70CQ2 1-3546) | binds | 
